Test results: patent US5378822

Chains of the proteins cited; added tags and fusions are not shown. Chains listed by the source or under a name are the forms on record and can include a tag or linker.
AhR-ARNT in Hepa 1c1c7 cytosol (Mus musculus), one chain, as listed by the source: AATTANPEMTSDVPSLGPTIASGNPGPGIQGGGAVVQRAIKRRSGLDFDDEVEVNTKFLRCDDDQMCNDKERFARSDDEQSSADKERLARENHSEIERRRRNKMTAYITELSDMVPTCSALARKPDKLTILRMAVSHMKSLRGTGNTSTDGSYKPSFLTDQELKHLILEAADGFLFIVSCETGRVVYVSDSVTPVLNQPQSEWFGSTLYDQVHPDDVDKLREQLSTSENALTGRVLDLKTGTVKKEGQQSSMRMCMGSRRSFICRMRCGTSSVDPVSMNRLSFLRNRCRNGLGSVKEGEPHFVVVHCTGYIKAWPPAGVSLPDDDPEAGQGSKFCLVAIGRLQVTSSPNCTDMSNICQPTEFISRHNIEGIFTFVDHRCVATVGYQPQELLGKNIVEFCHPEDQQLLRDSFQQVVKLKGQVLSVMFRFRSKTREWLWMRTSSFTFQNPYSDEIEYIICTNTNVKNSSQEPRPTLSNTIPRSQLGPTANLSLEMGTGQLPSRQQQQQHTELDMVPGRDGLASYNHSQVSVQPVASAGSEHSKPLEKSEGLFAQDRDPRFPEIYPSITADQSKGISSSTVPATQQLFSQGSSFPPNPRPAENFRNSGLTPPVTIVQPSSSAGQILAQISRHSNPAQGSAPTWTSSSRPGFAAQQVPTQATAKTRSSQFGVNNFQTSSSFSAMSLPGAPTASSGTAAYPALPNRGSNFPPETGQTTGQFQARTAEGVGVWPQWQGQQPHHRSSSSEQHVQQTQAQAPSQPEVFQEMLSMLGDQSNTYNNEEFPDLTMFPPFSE
AhR-ARNT in human SCC cell cytosol (Homo sapiens), one chain, as listed by the source, chain 2 of 2: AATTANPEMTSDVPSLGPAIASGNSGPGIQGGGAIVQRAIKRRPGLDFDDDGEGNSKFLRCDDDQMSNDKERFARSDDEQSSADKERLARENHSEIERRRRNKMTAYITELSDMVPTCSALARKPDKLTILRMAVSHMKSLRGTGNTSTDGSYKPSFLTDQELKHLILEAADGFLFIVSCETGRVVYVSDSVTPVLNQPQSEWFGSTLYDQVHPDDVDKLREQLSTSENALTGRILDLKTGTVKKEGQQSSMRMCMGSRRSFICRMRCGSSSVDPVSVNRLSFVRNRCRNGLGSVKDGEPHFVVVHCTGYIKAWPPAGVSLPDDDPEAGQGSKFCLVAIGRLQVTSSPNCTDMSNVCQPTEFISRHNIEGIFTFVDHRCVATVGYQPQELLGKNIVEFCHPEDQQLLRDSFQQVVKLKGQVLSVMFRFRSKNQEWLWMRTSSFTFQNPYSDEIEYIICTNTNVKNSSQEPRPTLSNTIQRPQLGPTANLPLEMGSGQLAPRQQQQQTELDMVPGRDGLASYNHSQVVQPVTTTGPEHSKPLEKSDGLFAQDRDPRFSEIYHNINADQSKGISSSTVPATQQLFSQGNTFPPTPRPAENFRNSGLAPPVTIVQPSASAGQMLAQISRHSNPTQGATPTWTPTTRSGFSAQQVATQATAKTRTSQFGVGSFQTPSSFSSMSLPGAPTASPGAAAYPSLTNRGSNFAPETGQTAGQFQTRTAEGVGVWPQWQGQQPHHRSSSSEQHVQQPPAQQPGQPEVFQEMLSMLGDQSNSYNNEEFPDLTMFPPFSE
AhR-ARNT in human SCC cell cytosol (Homo sapiens), one chain, as listed by the source, chain 1 of 2: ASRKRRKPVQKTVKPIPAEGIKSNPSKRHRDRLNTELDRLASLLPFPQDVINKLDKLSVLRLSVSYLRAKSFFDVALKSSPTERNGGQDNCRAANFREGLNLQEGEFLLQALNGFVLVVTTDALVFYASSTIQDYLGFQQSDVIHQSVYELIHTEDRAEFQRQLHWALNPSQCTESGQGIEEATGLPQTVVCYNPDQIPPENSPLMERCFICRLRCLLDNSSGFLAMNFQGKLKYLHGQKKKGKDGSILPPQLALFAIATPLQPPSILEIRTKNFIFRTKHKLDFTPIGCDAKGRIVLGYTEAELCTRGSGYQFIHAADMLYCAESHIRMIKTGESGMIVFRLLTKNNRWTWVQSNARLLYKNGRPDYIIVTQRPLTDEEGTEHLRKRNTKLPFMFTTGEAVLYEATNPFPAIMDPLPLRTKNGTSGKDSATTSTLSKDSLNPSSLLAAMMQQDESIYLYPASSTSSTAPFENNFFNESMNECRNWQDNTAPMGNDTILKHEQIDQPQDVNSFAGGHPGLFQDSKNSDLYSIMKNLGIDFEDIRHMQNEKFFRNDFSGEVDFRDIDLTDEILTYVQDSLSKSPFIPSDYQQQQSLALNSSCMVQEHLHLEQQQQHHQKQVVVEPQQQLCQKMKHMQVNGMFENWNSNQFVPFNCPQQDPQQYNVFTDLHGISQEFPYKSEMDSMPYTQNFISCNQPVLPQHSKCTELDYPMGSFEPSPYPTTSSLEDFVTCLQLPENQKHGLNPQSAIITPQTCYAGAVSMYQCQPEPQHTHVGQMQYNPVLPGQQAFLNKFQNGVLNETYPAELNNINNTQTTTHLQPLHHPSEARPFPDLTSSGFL

Tests used:
Experiment in all cases: EMSA
[1] = target: T1, AhR (murine) alone (Mus musculus) (UniProt Q8R4S5); conditions: no binding without ARNT; protein translated in vitro; label: 32P end-label
T1 sequence: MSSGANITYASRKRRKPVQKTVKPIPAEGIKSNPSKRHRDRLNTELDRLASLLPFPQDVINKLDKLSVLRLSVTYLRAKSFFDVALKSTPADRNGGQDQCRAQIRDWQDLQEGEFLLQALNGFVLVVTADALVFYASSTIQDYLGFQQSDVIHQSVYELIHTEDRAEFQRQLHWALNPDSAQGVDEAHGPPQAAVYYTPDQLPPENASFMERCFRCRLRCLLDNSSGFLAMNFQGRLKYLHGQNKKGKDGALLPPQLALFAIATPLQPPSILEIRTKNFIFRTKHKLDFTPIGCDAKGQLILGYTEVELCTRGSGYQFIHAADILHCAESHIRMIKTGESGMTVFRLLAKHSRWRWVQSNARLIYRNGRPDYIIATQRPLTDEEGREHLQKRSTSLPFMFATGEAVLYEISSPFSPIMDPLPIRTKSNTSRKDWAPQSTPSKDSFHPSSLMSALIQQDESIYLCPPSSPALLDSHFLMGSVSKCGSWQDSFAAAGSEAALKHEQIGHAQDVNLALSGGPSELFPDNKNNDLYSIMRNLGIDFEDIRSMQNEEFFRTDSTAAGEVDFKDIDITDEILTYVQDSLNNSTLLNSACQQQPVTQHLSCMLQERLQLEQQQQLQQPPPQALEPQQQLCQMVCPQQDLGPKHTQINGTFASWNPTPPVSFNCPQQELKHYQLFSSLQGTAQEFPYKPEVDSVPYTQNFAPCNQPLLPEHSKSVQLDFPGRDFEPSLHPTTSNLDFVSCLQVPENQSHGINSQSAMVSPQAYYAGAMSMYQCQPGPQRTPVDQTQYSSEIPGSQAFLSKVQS

[2] = system: AhR-ARNT in Hepa 1c1c7 cytosol (Mus musculus); conditions: 20 nM TCDD, 30 C; 35 ug cytosol; ligand dependent; protein in an extract; label: 32P end-label
[3] = system: AhR-ARNT in human SCC cell cytosol (Homo sapiens); conditions: 20 nM TCDD, room temperature; 35 ug cytosol; ligand dependent; protein in an extract; label: 32P end-label

TCGAGTAGATCACGCAATGGGCCCAGC / TCGAGCTGGGCCCATTGCGTGATCTAC [DRE3]
binding result [1]: no binding | binding result [2]: binds | binding result [3]: binds

For part of these data: Results from cells or extracts need not show a direct contact. For part of these data: Construct, isoform or probe ends are uncertain for at least one entry. For part of these data: A negative result means that nothing was seen under these conditions. For part of these data: Protein sequences can lack the tags named with them.
